From patent US9345739B2, “Methods and compositions for the treatment of proteinuric diseases” (The General Hospital Corporation, priority 2007, dated 2016) come the findings set out here.

Sequences of proteins named here, by UniProt entry; tags and fusion partners are left off. Residues count along the entry.
UniProt P09055, residues 21-798: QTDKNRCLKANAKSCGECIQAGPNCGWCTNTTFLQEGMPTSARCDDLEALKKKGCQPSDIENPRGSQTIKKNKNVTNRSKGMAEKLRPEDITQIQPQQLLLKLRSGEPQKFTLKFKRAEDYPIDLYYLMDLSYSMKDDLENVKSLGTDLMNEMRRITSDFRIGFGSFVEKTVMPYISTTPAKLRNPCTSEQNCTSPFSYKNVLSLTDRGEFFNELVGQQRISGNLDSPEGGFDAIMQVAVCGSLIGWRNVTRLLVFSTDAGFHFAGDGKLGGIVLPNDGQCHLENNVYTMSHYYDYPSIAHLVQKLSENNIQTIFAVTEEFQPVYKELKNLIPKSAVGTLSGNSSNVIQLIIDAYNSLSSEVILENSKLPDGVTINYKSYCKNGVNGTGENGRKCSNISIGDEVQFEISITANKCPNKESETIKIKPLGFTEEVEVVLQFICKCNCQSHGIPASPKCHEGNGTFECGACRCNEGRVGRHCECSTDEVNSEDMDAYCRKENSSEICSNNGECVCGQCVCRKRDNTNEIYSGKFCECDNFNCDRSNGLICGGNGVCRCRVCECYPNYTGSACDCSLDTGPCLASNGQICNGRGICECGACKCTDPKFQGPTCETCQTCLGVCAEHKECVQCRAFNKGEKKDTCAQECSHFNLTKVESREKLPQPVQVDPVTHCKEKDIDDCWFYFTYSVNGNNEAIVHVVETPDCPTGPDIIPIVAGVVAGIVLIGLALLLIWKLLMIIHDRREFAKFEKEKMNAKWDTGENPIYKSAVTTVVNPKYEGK
UniProt Q03405, residues 23-305: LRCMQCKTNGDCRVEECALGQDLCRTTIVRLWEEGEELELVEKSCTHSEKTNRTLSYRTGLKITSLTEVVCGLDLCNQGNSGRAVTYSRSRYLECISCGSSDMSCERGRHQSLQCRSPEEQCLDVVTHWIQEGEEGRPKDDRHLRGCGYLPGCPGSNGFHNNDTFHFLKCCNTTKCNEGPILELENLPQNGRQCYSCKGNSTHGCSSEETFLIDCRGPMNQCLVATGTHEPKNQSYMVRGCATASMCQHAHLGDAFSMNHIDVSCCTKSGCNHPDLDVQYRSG

These are yes or no findings as the source states them, for the method shown. Binding seen in cells or lysates may run through a third protein. Some results given as binding are weak or reduced against the parent protein; the word gives no strength.

The target in this test is mouse β1 integrin (mouse) (UniProt P09055). Nature of the test: co-immunoprecipitation from lysates of co-transfected HEK cells, blotted with HA or Flag antibodies.

In the case of “full length human uPAR (from UniProt Q03405 23-305) (receptor)”, the binding result is “binds”.
